According to patent EP1368020B1, “METHOD FOR IDENTIFYING MAXI-K CHANNEL BLOCKERS” (priority 2001, dated 2002):
Some of these results come from one statement about several compounds together.

By UniProt entry, the sequences of proteins in these tests, tags left out. Where a name states a change or a piece, a line headed by the entry shows the natural chain unless it says otherwise.
UniProt Q12791: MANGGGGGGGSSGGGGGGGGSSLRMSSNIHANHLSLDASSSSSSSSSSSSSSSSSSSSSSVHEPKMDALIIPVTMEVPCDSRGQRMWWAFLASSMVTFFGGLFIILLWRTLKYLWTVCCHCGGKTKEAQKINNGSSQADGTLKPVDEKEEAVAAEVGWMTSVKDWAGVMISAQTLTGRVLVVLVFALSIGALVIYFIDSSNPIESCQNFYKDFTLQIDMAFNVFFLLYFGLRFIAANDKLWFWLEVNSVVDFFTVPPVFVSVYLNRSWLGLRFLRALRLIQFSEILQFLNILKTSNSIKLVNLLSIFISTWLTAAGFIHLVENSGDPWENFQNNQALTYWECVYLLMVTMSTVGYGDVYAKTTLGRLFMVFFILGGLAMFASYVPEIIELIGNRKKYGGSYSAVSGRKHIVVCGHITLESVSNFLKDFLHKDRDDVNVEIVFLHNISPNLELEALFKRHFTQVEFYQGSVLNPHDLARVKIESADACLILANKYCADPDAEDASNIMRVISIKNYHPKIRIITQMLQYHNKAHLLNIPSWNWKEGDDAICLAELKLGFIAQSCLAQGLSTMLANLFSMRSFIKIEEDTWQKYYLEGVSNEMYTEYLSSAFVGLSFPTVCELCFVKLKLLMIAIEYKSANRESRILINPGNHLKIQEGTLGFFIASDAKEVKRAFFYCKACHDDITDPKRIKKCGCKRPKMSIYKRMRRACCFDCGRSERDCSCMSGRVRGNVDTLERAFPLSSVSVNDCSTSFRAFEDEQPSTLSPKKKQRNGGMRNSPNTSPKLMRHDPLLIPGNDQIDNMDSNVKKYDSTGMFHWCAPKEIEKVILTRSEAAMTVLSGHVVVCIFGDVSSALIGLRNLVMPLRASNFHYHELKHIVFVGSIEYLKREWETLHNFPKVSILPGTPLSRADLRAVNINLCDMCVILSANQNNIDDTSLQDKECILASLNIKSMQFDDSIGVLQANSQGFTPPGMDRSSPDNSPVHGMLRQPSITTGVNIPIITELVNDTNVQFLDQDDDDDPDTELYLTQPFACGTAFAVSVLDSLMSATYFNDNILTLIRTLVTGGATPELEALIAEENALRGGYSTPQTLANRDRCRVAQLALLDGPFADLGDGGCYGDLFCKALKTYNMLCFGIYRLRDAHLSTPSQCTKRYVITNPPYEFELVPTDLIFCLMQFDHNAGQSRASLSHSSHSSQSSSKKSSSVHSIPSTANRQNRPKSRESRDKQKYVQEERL

Target: T1, maxi-K channels transiently expressed in TsA-201 cells (Homo sapiens, UniProt Q12791)
T1 construct: expressed in transfected cells; host or cells: TsA-201 cells, transient transfection
Assay: FRET membrane potential assay (VIPR), maxi-K channels transiently expressed in TsA-201 cells
Type: cell-based
Details: concentration not given, Figure 2

SMILES | effect on maxi-K channel activity
CCCNC(=O)OC1CCC(CNC(=O)c2ccccc2OC)(c2ccccc2)CC1 (centres unmarked) [Compound A] | neither Compound A, nor Compound B have any effect on maxi-K channel activity
COc1ccccc1C(=O)NCC1(c2ccccc2)CCC(=O)CC1 [Compound B] | neither Compound A, nor Compound B have any effect on maxi-K channel activity
